# Source: PubChem BioAssay AID1259425 (University of Nebraska Medical Center, 2018)
# Purpose: 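Compare each knockdown with KSR1 silencing using changes in marker transcripts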 (primary screen)
# Cell system: HCT116 human colon cancer cells
# Reagents: siRNA pool against human genes, 50 nM siRNA
# Measured: 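After 50 nM siRNA pool, branched-DNA assay measures six marker transcripts per well, minus blank, normalised to the geometric mean of two housekeeping transcripts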
# Direction: BNIP3L mRNA: higher = more BNIP3L transcript after knockdown; NDRG1 mRNA: higher = more NDRG1 transcript after knockdown; BNIP3 mRNA: higher = more BNIP3 transcript after knockdown; ALDOC mRNA: higher = more ALDOC transcript after knockdown; ACSL5 mRNA: higher = more ACSL5 transcript after knockdown
# In all, the deposit lists about 14,000 reagents; below is a random part of them. Not given: the time to read-out.
target gene,PubChem SID,"BNIP3L mRNA, set 1","NDRG1 mRNA, set 1","BNIP3 mRNA, set 1","ALDOC mRNA, set 1","ACSL5 mRNA, set 1"
DYDC2 (DPY30 domain containing 2),SID364003952,0.1,0.254,0.245,0.116,0.507
ATP10A (ATPase phospholipid transporting 10A (putative)),SID364002820,0.12,0.173,0.35,0.0309,0.139
ANAPC10 (anaphase promoting complex subunit 10),SID363999171,0.0682,0.141,0.269,0.0228,0.162
FBXO28 (F-box protein 28),SID363999346,0.159,0.0874,0.325,0.049,0.316
CISH (cytokine inducible SH2 containing protein),SID363998436,0.114,0.103,0.24,0.0172,0.122
ENPEP (glutamyl aminopeptidase),SID363993189,0.098,0.516,0.285,0.0151,0.186
ZBTB6 (zinc finger and BTB domain containing 6),SID363997414,0.207,0.284,0.503,0.0171,0.237
GET1 (guided entry of tail-anchored proteins factor 1),SID363995595,0.213,0.376,0.393,0.0542,0.252
PAPOLG (poly(A) polymerase gamma),SID364002587,0.14,0.277,0.265,0.0322,0.186
HEYL,SID363998943,0.0805,0.135,0.321,0.0029,0.237
RTL8C (retrotransposon Gag like 8C),SID363994984,0.128,0.369,0.343,0.024,0.334
ORC4 (origin recognition complex subunit 4),SID363993722,0.0661,0.257,0.221,0.0212,0.221
"LSM8 (LSM8 homolog, U6 small nuclear RNA associated)",SID363999943,0.181,0.602,0.287,0.0436,0.205
MPDU1 (mannose-P-dolichol utilization defect 1),SID363995821,0.186,1.34,0.313,0.051,0.345
ABCD2 (ATP binding cassette subfamily D member 2),SID363996091,0.145,0.132,0.243,0.0228,0.175
CAPN3 (calpain 3),SID363991407,0.112,0.319,0.245,0.031,0.17

Reprinted from the listing (5 entries):
target gene,PubChem SID,"BNIP3L mRNA, set 1","NDRG1 mRNA, set 1","BNIP3 mRNA, set 1","ALDOC mRNA, set 1","ACSL5 mRNA, set 1"
ATP10A (ATPase phospholipid transporting 10A (putative)),SID364002820,0.12,0.173,0.35,0.0309,0.139
ANAPC10 (anaphase promoting complex subunit 10),SID363999171,0.0682,0.141,0.269,0.0228,0.162
FBXO28 (F-box protein 28),SID363999346,0.159,0.0874,0.325,0.049,0.316
CISH (cytokine inducible SH2 containing protein),SID363998436,0.114,0.103,0.24,0.0172,0.122
ENPEP (glutamyl aminopeptidase),SID363993189,0.098,0.516,0.285,0.0151,0.186

The listing continues:
target gene,PubChem SID,"BNIP3L mRNA, set 1","NDRG1 mRNA, set 1","BNIP3 mRNA, set 1","ALDOC mRNA, set 1","ACSL5 mRNA, set 1"
"PCDHGA6 (protocadherin gamma subfamily A, 6)",SID364001246,0.121,0.128,0.241,0.0398,0.27
HTATSF1 (HIV-1 Tat specific factor 1),SID363998908,0.0895,0.0853,0.225,0.00535,0.0465
LZTR1 (leucine zipper like post translational regulator 1),SID363997538,0.388,0.701,1.51,0.0787,0.611
GBA3 (glucosylceramidase beta 3 (gene/pseudogene)),SID364001923,0.0732,0.118,0.338,0.0167,0.142
MMP24 (matrix metallopeptidase 24),SID363997472,0.0987,0.485,0.287,0.0256,0.259
YRDC (yrdC N6-threonylcarbamoyltransferase domain containing),SID364002938,0.14,0.23,0.328,0.0223,0.235
KBTBD8 (kelch repeat and BTB domain containing 8),SID364004018,0.124,0.195,0.246,0.0489,0.0561
CEP55 (centrosomal protein 55),SID364000807,0.273,0.225,0.907,0.0388,0.257
GPR137B (G protein-coupled receptor 137B),SID363994391,0.117,0.252,0.345,0.0319,0.296
SLC18A1,SID363994201,0.0927,0.284,0.33,0.02,0.247
NLRP14 (NLR family pyrin domain containing 14),SID364004885,0.0319,0.0536,0.165,-0.0072,0.128
RPUSD2 (RNA pseudouridine synthase domain containing 2),SID364004698,0.0622,0.507,0.285,0.0367,0.207
POLR3A (RNA polymerase III subunit A),SID363997786,0.148,0.449,0.179,0.0163,0.155
CCNK (cyclin K),SID363994919,0.0925,2.51,0.367,0.0531,0.21
CHCHD3 (coiled-coil-helix-coiled-coil-helix domain containing 3),SID364000546,0.0799,0.321,0.215,0.0104,0.129
OXCT1 (3-oxoacid CoA-transferase 1),SID363991767,0.0954,0.142,0.216,0.0159,0.124
AKTIP (AKT interacting protein),SID364002461,0.0524,0.0959,0.17,0.0097,0.109
HERC6,SID364000637,0.0732,0.299,0.334,0.0248,0.336
MINAR1 (membrane integral NOTCH2 associated receptor 1),SID364005164,0.144,0.0323,0.199,0.0257,0.0962
RAMP3 (receptor activity modifying protein 3),SID363996730,0.125,0.314,0.31,0.0249,0.236
CHI3L1 (chitinase 3 like 1),SID363992560,0.0963,0.0775,0.246,0.013,0.14
MASP1 (MBL associated serine protease 1),SID363993092,0.0783,0.222,0.313,0.0323,0.312
"NT5C1A (5'-nucleotidase, cytosolic IA)",SID364004035,0.389,0.236,0.349,0.0717,0.15
NUP210 (nucleoporin 210),SID364003164,0.181,0.246,0.284,0.0397,0.28
PRKAR1A,SID363993892,0.0567,0.128,0.346,0.00723,0.319
LEPROT (leptin receptor overlapping transcript),SID364000338,0.148,0.127,0.257,0.0961,0.0931
TFEB (transcription factor EB),SID363997863,0.101,0.089,0.414,0.0153,0.0921
SDF2 (stromal cell derived factor 2),SID363997676,0.156,0.437,0.226,0.0187,0.109
FBL (fibrillarin rRNA 2'-O-methyltransferase),SID363992698,0.156,0.298,0.554,0.0486,0.268
SLC35A3,SID363998167,0.0918,0.173,0.31,0.0241,0.135
CST5 (cystatin D),SID363993113,0.152,0.241,0.501,0.0409,0.279
AIPL1 (AIP like 1 HSP90 co-chaperone),SID363998764,0.0702,0.0489,0.214,0.0173,0.138
CST1 (cystatin SN),SID363993111,0.17,0.355,0.237,0.0481,0.266
PIGK (phosphatidylinositol glycan anchor biosynthesis class K),SID363996384,0.0975,0.335,0.221,0.0646,0.153
